Data taken from the supplement of paper PMC10849652.
The list shows a part of the results.

Amino acid sequences for entries named in this document (tags omitted). A change or cut given only in a name is not applied to a line headed by its entry.
UniProt P37268: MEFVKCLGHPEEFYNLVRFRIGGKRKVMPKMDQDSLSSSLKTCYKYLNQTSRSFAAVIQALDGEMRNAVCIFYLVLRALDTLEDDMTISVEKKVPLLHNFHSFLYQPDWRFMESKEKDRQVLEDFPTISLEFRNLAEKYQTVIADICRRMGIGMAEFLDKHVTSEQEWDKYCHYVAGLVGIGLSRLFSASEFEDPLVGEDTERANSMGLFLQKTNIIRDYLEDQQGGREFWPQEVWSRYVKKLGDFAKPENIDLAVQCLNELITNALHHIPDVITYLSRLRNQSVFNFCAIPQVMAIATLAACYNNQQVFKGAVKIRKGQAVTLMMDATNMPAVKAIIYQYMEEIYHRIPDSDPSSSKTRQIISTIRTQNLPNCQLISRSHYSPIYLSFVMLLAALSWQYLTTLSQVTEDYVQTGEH
UniProt P15407: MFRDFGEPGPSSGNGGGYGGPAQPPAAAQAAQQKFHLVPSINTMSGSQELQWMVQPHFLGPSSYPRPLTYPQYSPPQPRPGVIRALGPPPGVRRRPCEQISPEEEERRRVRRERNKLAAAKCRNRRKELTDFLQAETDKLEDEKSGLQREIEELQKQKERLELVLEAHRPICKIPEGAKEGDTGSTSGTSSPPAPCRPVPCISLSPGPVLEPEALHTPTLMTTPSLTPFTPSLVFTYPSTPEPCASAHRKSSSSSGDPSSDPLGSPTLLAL
UniProt Q4L180: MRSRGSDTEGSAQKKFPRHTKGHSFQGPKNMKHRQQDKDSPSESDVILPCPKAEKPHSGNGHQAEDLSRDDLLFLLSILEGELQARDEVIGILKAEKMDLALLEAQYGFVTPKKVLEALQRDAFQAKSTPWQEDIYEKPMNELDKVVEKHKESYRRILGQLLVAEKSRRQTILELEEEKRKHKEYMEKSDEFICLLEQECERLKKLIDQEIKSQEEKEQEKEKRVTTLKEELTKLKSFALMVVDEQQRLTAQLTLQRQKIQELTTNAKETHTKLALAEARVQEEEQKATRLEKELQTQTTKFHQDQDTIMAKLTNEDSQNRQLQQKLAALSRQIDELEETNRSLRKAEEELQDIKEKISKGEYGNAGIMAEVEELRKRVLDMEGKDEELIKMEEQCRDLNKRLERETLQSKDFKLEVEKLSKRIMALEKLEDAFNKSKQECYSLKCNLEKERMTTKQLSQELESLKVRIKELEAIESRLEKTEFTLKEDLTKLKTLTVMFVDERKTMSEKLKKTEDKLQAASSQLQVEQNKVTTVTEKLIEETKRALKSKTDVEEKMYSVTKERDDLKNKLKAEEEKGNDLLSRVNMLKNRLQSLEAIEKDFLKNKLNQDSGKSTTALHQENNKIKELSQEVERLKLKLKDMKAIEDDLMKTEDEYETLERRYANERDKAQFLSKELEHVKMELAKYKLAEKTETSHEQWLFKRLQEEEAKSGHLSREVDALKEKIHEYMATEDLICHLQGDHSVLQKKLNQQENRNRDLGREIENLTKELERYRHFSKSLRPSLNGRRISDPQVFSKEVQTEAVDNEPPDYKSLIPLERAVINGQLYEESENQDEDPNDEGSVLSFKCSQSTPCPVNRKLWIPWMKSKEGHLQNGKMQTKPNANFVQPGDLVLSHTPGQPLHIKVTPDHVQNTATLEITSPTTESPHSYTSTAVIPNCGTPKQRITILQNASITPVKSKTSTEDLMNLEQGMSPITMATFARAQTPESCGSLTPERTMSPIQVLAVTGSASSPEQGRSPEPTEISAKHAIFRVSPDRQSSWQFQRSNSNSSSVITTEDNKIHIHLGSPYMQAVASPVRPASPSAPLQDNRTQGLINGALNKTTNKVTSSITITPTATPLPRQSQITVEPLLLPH
UniProt Q9UKB1: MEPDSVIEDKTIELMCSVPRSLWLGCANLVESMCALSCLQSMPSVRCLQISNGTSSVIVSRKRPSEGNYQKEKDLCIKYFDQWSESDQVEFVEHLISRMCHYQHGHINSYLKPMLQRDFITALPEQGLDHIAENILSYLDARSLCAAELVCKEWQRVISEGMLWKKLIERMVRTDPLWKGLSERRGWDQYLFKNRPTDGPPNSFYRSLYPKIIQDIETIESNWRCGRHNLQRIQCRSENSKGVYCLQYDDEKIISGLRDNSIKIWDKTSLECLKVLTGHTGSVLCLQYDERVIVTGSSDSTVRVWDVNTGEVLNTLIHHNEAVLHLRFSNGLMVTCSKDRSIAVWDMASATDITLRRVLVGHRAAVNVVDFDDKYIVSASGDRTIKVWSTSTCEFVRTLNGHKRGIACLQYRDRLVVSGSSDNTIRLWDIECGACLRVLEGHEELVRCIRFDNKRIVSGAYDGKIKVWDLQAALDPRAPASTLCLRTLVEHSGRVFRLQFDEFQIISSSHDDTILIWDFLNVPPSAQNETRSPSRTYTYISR
UniProt Q96PY5, whole entry, looked up: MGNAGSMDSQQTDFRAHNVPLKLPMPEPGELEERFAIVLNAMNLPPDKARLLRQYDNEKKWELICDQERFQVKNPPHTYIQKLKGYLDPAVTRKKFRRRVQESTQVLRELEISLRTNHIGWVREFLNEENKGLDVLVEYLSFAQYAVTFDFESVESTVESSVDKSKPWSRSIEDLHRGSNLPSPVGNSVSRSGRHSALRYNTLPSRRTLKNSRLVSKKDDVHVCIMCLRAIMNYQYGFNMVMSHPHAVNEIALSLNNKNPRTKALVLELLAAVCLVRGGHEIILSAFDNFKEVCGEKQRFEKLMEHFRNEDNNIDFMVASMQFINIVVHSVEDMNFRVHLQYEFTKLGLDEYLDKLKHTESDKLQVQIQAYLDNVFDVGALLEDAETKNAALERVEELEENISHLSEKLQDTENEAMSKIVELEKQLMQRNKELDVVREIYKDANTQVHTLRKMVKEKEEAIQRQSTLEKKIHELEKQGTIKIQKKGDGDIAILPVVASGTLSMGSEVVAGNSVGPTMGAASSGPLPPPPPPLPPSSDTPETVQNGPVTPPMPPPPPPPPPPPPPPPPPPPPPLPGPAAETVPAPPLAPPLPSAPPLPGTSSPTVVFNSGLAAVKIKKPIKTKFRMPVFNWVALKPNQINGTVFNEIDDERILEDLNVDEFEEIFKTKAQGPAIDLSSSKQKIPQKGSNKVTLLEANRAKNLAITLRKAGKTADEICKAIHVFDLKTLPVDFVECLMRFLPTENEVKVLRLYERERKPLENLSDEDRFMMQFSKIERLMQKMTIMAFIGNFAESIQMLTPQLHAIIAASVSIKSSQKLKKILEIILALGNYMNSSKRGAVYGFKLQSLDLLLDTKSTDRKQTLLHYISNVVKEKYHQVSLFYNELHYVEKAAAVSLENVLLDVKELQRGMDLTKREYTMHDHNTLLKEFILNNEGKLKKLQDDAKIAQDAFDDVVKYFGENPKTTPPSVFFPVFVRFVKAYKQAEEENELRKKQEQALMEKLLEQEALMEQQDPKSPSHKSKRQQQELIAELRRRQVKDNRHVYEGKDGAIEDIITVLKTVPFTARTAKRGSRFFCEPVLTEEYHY
UniProt O94887: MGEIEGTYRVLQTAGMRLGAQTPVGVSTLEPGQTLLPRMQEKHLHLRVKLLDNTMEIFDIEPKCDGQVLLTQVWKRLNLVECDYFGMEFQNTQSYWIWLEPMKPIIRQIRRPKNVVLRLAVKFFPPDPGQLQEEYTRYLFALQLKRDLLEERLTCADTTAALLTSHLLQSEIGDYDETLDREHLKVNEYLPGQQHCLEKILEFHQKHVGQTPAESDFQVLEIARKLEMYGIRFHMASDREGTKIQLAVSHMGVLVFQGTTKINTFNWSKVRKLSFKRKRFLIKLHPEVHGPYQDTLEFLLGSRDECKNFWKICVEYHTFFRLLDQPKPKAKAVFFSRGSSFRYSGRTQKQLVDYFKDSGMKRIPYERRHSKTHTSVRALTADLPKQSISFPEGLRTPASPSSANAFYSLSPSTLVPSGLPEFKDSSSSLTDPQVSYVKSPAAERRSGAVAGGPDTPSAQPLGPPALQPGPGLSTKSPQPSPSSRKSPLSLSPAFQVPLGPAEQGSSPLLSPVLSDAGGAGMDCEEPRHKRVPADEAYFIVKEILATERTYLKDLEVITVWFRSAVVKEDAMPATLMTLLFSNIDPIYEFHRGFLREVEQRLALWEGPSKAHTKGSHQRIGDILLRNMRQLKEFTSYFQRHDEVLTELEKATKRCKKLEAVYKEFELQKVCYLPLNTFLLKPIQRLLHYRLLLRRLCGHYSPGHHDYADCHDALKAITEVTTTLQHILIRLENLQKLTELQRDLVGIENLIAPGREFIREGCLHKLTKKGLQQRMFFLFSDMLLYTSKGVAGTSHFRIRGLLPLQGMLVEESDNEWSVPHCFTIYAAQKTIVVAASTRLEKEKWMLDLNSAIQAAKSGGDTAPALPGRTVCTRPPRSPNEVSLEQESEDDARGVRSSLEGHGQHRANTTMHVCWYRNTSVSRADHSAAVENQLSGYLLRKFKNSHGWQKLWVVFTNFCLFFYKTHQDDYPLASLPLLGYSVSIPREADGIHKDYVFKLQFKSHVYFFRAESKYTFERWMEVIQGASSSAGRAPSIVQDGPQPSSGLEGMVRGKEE
UniProt Q4VC44: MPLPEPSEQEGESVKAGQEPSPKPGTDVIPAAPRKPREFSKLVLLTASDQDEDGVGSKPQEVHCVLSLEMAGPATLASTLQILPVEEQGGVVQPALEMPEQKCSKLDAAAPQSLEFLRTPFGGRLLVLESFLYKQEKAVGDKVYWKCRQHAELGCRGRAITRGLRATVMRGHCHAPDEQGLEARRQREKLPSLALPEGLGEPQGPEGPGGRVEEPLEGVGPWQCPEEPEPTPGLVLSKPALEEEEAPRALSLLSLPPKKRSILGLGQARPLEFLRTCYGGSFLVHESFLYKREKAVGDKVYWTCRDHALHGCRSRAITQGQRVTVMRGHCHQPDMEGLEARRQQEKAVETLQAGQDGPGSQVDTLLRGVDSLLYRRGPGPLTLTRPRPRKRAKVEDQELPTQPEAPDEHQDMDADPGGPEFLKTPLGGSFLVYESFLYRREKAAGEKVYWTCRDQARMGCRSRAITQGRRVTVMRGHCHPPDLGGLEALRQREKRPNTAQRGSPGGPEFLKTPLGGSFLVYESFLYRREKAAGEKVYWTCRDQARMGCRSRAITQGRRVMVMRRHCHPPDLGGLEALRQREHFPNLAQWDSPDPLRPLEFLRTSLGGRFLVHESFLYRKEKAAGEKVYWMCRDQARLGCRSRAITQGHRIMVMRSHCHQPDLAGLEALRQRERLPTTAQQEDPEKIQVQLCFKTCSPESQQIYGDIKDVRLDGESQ
UniProt Q96HJ9: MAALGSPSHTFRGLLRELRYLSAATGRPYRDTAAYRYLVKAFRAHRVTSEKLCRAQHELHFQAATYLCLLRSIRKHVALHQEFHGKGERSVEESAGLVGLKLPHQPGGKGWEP
UniProt P39748, whole entry, looked up: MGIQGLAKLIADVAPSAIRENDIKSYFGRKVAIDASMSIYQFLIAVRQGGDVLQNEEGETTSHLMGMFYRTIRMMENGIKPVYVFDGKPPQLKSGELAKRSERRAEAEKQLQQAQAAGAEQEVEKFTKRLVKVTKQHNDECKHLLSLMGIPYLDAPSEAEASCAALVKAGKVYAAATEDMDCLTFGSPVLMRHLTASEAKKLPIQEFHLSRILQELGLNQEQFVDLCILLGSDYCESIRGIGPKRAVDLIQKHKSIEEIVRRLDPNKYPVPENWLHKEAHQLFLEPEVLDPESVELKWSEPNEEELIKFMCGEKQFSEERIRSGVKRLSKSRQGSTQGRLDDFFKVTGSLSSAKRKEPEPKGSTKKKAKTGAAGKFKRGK
UniProt Q96SL8: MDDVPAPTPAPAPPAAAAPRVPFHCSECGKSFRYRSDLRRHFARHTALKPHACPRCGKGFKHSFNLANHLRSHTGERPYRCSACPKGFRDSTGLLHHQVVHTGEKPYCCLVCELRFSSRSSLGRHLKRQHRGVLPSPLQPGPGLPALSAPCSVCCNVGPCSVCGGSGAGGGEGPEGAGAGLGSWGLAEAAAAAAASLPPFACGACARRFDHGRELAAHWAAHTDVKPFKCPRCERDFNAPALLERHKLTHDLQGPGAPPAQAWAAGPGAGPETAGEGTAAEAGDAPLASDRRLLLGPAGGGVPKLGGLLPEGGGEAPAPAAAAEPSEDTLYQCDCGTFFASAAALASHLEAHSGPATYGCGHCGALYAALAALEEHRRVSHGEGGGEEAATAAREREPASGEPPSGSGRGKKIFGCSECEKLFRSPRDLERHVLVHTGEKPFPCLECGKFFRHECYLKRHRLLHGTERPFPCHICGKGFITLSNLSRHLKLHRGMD
UniProt Q9H4M3: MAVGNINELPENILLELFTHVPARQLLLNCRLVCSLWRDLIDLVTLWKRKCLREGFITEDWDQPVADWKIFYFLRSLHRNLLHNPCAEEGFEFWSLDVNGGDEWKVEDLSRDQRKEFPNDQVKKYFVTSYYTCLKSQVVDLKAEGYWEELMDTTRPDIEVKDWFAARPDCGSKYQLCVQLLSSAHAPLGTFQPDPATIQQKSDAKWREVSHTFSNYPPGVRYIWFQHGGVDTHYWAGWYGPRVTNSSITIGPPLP

What was measured:
Test in all cases: log2 fold change, soluble protein after heating vs DMSO (PISA); higher = thermal stabilisation; K562 lysate, 10 uM; active = over 0.2 and 3.5 SD of the protein, either way, in both replicates (recomputed)
lapatinib = compound: CS(=O)(=O)CCNCc1ccc(-c2ccc3ncnc(Nc4ccc(OCc5cccc(F)c5)c(Cl)c4)c3c2)o1 [lapatinib]
Summary of the method: (§1)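 K562 pellets were dounce-homogenised in PBS pH 7.4 containing 1 mM MgCl2, and the crude extract, at 1 mg/mL protein, was exposed to 10 μM compound for 30 min. Aliquots were heated for 3 min across 48°C-58°C, pooled, brought to 0.5% NP-40 at 4°C and spun at 21,000xg for 90 min, with the supernatant taken as soluble protein. TMTpro 16plex LC-MS/MS with equalised channel sums quantified that protein. Values are log-two fold changes in thermal stability relative to solvent controls, taken from duplicates.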

pictilisib = compound: CS(=O)(=O)N1CCN(Cc2cc3nc(-c4cccc5[nH]ncc45)nc(N4CCOCC4)c3s2)CC1 [pictilisib]
Summary of the method: as §1

crizotinib = compound: C[C@@H](Oc1cc(-c2cnn(C3CCNCC3)c2)cnc1N)c1c(Cl)ccc(F)c1Cl [crizotinib]
Summary of the method: as §1

[1] = compound: C[C@H](C1=CC=C(C=C1)C(=O)NC2=C3C=CNC3=NC=C2)N
Summary of the method: as §1

duvelisib = compound: C[C@H](Nc1ncnc2nc[nH]c12)c1cc2cccc(Cl)c2c(=O)n1-c1ccccc1 [duvelisib]
Summary of the method: as §1

gandotinib = compound: Cc1cc(Nc2cc(CN3CCOCC3)c3nc(C)c(Cc4ccc(Cl)cc4F)n3n2)n[nH]1 [gandotinib]
Summary of the method: as §1

tozasertib = compound: Cc1cc(Nc2cc(N3CCN(C)CC3)nc(Sc3ccc(NC(=O)C4CC4)cc3)n2)n[nH]1 [tozasertib]
Summary of the method: as §1

doramapimod = compound: Cc1ccc(-n2nc(C(C)(C)C)cc2NC(=O)Nc2ccc(OCCN3CCOCC3)c3ccccc23)cc1 [doramapimod]
Summary of the method: as §1

bafetinib = compound: Cc1ccc(NC(=O)c2ccc(CN3CC[C@H](N(C)C)C3)c(C(F)(F)F)c2)cc1Nc1nccc(-c2cncnc2)n1 [bafetinib]
Summary of the method: as §1

[2] = compound: Cc1cccc(CC(=O)N2CCc3c2ccc(-c2cn(C)c4ncnc(N)c24)c3F)n1
Summary of the method: as §1

nilotinib = compound: Cc1cn(-c2cc(NC(=O)c3ccc(C)c(Nc4nccc(-c5cccnc5)n4)c3)cc(C(F)(F)F)c2)cn1 [nilotinib]
Summary of the method: as §1

[3] = compound: Cc1nc(Nc2n[nH]c3c2CN(C(=O)N[C@H](CN(C)C)c2ccccc2)C3(C)C)c2sccc2n1
Summary of the method: as §1

dasatinib = compound: Cc1nc(Nc2ncc(C(=O)Nc3c(C)cccc3Cl)s2)cc(N2CCN(CCO)CC2)n1 [dasatinib]
Summary of the method: as §1

[4] = compound: Cc1ncc(-c2ccnc(Nc3ccc(S(C)(=O)=O)cc3)n2)n1C(C)C
Summary of the method: as §1

[5] = compound: Cn1cc(-c2ccc3c(c2)CCN3C(=O)Cc2cccc(C(F)(F)F)c2)c2c(N)ncnc21
Summary of the method: as §1

quisinostat = compound: Cn1cc(CNCC2CCN(c3ncc(C(=O)NO)cn3)CC2)c2ccccc21 [quisinostat]
Summary of the method: as §1

tipifarnib = compound: Cn1cncc1[C@@](N)(c1ccc(Cl)cc1)c1ccc2c(c1)c(-c1cccc(Cl)c1)cc(=O)n2C [tipifarnib]
Summary of the method: as §1

[6] = compound: NC(=O)Nc1cc(-c2cccc(F)c2)sc1C(=O)N[C@H]1CCCNC1
Summary of the method: as §1

[7] = compound: NC(=O)c1cnc(N[C@@H]2CCCC[C@@H]2N)nc1Nc1cccc(-n2nccn2)c1
Summary of the method: as §1

[8] = compound: NC1(c2ccc(-c3nc4ccn5c(=O)[nH]nc5c4cc3-c3ccccc3)cc2)CCC1
Summary of the method: as §1

Target | log2 fold change (lapatinib) | log2 fold change (pictilisib) | log2 fold change (crizotinib) | log2 fold change [1] | log2 fold change (duvelisib) | log2 fold change (gandotinib) | log2 fold change (tozasertib) | log2 fold change (doramapimod) | log2 fold change (bafetinib) | log2 fold change [2] | log2 fold change (nilotinib) | log2 fold change [3] | log2 fold change (dasatinib) | log2 fold change [4] | log2 fold change [5] | log2 fold change (quisinostat) | log2 fold change (tipifarnib) | log2 fold change [6] | log2 fold change [7] | log2 fold change [8]
FDFT1 (UniProt P37268) | inactive: -0.037 | inactive: -0.018 | inactive: 0.062 | inactive: -0.045 | inactive: 0.19 | inactive: 0.207 | inactive: -0.004 | inactive: 0 | inactive: 0.018 | inactive: 0.01 | inactive: 0.032 | inactive: -0.048 | inactive: -0.012 | inactive: -0.037 | inactive: -0.008 | inactive: -0.014 | inactive: -0.053 | inactive: 0.005 | inactive: 0.042 | inactive: -0.025
FAT2 (UniProt Q9NYQ8) | inactive: -0.027 | inactive: -0.015 | inactive: -0.512 | inactive: -0.366 | – | inactive: 0.182 | inactive: 0.055 | inactive: -0.094 | inactive: -0.244 | inactive: 0.407 | inactive: -0.086 | inactive: 0.086 | – | inactive: 0.014 | – | active: -0.978 | inactive: -0.028 | inactive: 0.36 | inactive: 0.025 | inactive: -0.087
FOSL1 (UniProt P15407) | inactive: 0.027 | – | inactive: 0.161 | inactive: -0.145 | inactive: -0.191 | inactive: 0.164 | – | inactive: -0.002 | – | inactive: 0.082 | inactive: -0.125 | inactive: 0.014 | inactive: 0.048 | inactive: 0.248 | inactive: 0.089 | inactive: -0.046 | inactive: -0.224 | inactive: -0.167 | inactive: -0.089 | –
FBXO11 isoform 5 (UniProt Q86XK2) | inactive: 0.108 | inactive: -0.173 | inactive: -0.003 | inactive: -0.015 | inactive: -0.086 | inactive: -0.04 | – | inactive: -0.013 | inactive: 0.136 | inactive: -0.017 | inactive: 0.012 | inactive: -0.057 | inactive: -0.023 | inactive: 0.039 | inactive: 0.029 | inactive: -0.109 | inactive: 0.072 | inactive: 0.054 | inactive: -0.012 | inactive: -0.032
FAM86B2 (UniProt P0C5J1) | inactive: 0.058 | inactive: -0.017 | – | – | – | – | – | – | inactive: -0.105 | – | inactive: -0.043 | inactive: 0.002 | – | inactive: 0.21 | – | – | inactive: 0.089 | – | inactive: -0.091 | –
FILIP1L (UniProt Q4L180) | inactive: 0.013 | – | – | – | inactive: 0.031 | – | inactive: -0.059 | – | – | – | – | – | inactive: 0.163 | – | inactive: 0.14 | – | – | – | inactive: -0.218 | –
FBXW11 (UniProt Q9UKB1) | inactive: 0.065 | inactive: 0.007 | inactive: -0.016 | inactive: 0.025 | inactive: 0.163 | inactive: -0.1 | inactive: 0.04 | inactive: 0.037 | inactive: -0.09 | inactive: -0.296 | – | – | inactive: -0.068 | – | inactive: 0.019 | inactive: 0.021 | – | inactive: -0.02 | inactive: -0.095 | inactive: 0.141
FKRP (UniProt Q9H9S5) | inactive: -0.001 | – | inactive: -0.074 | inactive: -0.278 | inactive: 0.105 | inactive: 0.107 | inactive: 0.001 | inactive: -0.052 | – | inactive: 0.107 | – | – | inactive: -0.125 | – | inactive: -0.016 | inactive: -0.098 | – | inactive: 0.031 | inactive: -0.209 | inactive: 0.001
FIP1L1 isoform 3 (UniProt Q6UN15) | inactive: -0.398 | – | inactive: 0.042 | – | – | – | inactive: -0.093 | inactive: 0.103 | – | – | inactive: -0.257 | inactive: -0.093 | – | inactive: 0.308 | – | inactive: 0.012 | inactive: -0.029 | inactive: -0.002 | inactive: 0.239 | inactive: 0.139
FER (UniProt P16591) | inactive: 0.268 | inactive: -0.25 | inactive: 0.426 | inactive: -0.222 | inactive: -0.051 | inactive: 0.371 | inactive: 0.077 | inactive: 0.029 | inactive: -0.061 | inactive: 0.082 | inactive: -0.123 | inactive: 0.331 | inactive: 0.127 | inactive: 0 | inactive: 0.05 | inactive: -0.166 | inactive: -0.093 | – | inactive: 0.26 | inactive: -0.006
FMNL2 isoform 3 (UniProt Q96PY5) | inactive: -0.077 | – | inactive: -0.17 | – | inactive: -0.085 | – | – | inactive: 0.091 | – | – | inactive: -0.1 | inactive: -0.087 | inactive: 0.101 | inactive: -0.018 | inactive: -0.028 | inactive: -0.1 | inactive: -0.012 | inactive: -0.047 | inactive: 0.002 | inactive: -0.021
FAM83H (UniProt Q6ZRV2) | inactive: 0.048 | – | – | inactive: -0.153 | – | inactive: 0.056 | inactive: 0.097 | – | – | inactive: 0.12 | – | – | – | – | – | – | – | – | inactive: 0.15 | –
FARP2 (UniProt O94887) | inactive: 0.031 | inactive: -0.208 | inactive: -0.026 | inactive: -0.371 | inactive: 0 | inactive: -0.271 | – | inactive: -0.088 | inactive: -0.041 | inactive: 0.118 | inactive: -0.046 | inactive: -0.102 | inactive: -0.033 | inactive: -0.076 | inactive: -0.092 | inactive: 0.022 | inactive: -0.192 | inactive: -0.038 | inactive: -0.189 | inactive: -0.035
FER isoform 3 (UniProt P16591) | inactive: 0.004 | – | inactive: 0.406 | inactive: 0.096 | – | inactive: 0.496 | – | inactive: -0.013 | – | inactive: -0.014 | – | – | – | – | – | inactive: -0.266 | – | – | inactive: -0.057 | –
FLYWCH1 isoform 3 (UniProt Q4VC44) | inactive: 0.067 | – | inactive: -0.101 | – | inactive: -0.057 | – | – | inactive: -0.138 | – | – | inactive: 0.145 | inactive: -0.126 | inactive: 0.075 | inactive: -0.129 | inactive: -0.026 | inactive: 0.089 | inactive: -0.225 | inactive: -0.064 | inactive: 0.003 | –
FMC1 (UniProt Q96HJ9) | inactive: -0.011 | inactive: -0.001 | inactive: -0.013 | inactive: -0.057 | inactive: -0.134 | inactive: -0.056 | inactive: -0.05 | inactive: -0.092 | inactive: -0.051 | inactive: 0.037 | – | – | inactive: 0.106 | – | inactive: 0.008 | inactive: 0.058 | – | inactive: -0.035 | inactive: 0.021 | inactive: -0.024
FEN1 (UniProt P39748) | inactive: -0.041 | inactive: 0.02 | inactive: -0.036 | inactive: -0.014 | inactive: 0.02 | inactive: -0.062 | inactive: -0.032 | inactive: 0.043 | inactive: -0.011 | inactive: 0.004 | inactive: 0.037 | inactive: -0.041 | – | inactive: 0.003 | inactive: 0.019 | inactive: -0.042 | inactive: 0.02 | inactive: 0.045 | inactive: -0.035 | inactive: -0.002
FHAD1 isoform 3 (UniProt B1AJZ9) | inactive: -0.145 | – | – | – | inactive: 0.013 | – | inactive: -0.024 | – | – | – | – | – | inactive: 0.059 | – | inactive: -0.015 | – | – | – | inactive: 0.042 | inactive: -0.168
FBXW8 (UniProt Q8N3Y1) | inactive: 0.031 | inactive: 0.087 | – | – | – | – | inactive: -0.036 | – | inactive: 0.126 | – | inactive: -0.011 | inactive: 0.178 | – | inactive: 0.21 | – | – | inactive: 0.28 | – | inactive: 0.039 | inactive: -0.216
FIZ1 (UniProt Q96SL8) | inactive: 0.191 | inactive: 0.049 | – | inactive: 0.042 | – | inactive: -0.14 | – | – | inactive: 0.033 | inactive: 0.273 | inactive: -0.061 | inactive: -0.225 | – | inactive: 0.05 | – | – | inactive: 0.064 | – | inactive: 0.011 | –
FBXO44 isoform 2 (UniProt Q9H4M3) | inactive: -0.006 | inactive: -0.337 | – | inactive: -0.043 | inactive: 0 | inactive: 0.012 | – | – | inactive: 0.113 | inactive: 0.137 | inactive: -0.005 | inactive: -0.198 | inactive: 0.024 | inactive: -0.085 | inactive: -0.112 | – | inactive: -0.056 | – | inactive: 0.013 | inactive: 0.081
FANCC (UniProt Q00597) | inactive: -0.101 | – | inactive: 0.104 | – | – | – | – | inactive: -0.04 | – | – | – | – | – | – | – | inactive: 0.001 | – | inactive: 0.142 | inactive: -0.281 | inactive: -0.452

2 entries picked at random from the list so far:
Target | log2 fold change (lapatinib) | log2 fold change (pictilisib) | log2 fold change (crizotinib) | log2 fold change [1] | log2 fold change (duvelisib) | log2 fold change (gandotinib) | log2 fold change (tozasertib) | log2 fold change (doramapimod) | log2 fold change (bafetinib) | log2 fold change [2] | log2 fold change (nilotinib) | log2 fold change [3] | log2 fold change (dasatinib) | log2 fold change [4] | log2 fold change [5] | log2 fold change (quisinostat) | log2 fold change (tipifarnib) | log2 fold change [6] | log2 fold change [7] | log2 fold change [8]
FLYWCH1 isoform 3 (UniProt Q4VC44) | inactive: 0.067 | – | inactive: -0.101 | – | inactive: -0.057 | – | – | inactive: -0.138 | – | – | inactive: 0.145 | inactive: -0.126 | inactive: 0.075 | inactive: -0.129 | inactive: -0.026 | inactive: 0.089 | inactive: -0.225 | inactive: -0.064 | inactive: 0.003 | –
FIP1L1 isoform 3 (UniProt Q6UN15) | inactive: -0.398 | – | inactive: 0.042 | – | – | – | inactive: -0.093 | inactive: 0.103 | – | – | inactive: -0.257 | inactive: -0.093 | – | inactive: 0.308 | – | inactive: 0.012 | inactive: -0.029 | inactive: -0.002 | inactive: 0.239 | inactive: 0.139
